# Laboratory results from the supplement of paper PMC3334620.
# The full ranking holds about 33,000 sequences; the median of “E-score (-0.5 to 0.5)” is about -0.0059, and the highest 2% start at about 0.26. This is one part of the list.
# Target: T1, Cin5 (UniProt P40917)
# T1 sequence: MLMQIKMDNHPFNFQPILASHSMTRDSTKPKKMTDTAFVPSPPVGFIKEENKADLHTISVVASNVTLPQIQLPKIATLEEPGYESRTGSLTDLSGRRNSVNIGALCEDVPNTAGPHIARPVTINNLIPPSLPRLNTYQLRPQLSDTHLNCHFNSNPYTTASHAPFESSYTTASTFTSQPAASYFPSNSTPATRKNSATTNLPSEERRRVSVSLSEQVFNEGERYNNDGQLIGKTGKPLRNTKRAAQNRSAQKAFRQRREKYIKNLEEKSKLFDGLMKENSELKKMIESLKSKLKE
# Test: PBM E-score (8-mer binding enrichment) (E-score (-0.5 to 0.5)); higher = stronger / more preferred TF binding
# Details: protein concentration: 100 nM; construct: GST-full length
# Summary of the method: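 Universal all-10-mer Agilent arrays, double-stranded by primer extension on fresh or once-stripped slides, were probed with about 100-200 nM GST-tagged yeast transcription factors made by PURExpress. Fluorescent anti-GST detected bound protein, and masliner normalised the scans. E-scores from the Universal PBM Analysis Suite were given to each ungapped eight-base word pooled with its reverse complement.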
row,Sequence,PBM E-score
1,AAGGAAGG,-0.115
2,TCAGAACA,0.0894
3,CCCACGGG,-0.229
4,AAGTGAGT,0.0146
5,CGGTAAGA,0.0466
6,ACCAGTGC,-0.287
7,AGTAATAC,0.2
8,ACCTCTAG,-0.0989
9,AAAGTAAC,0.166
10,GGCGCAAC,-0.055
11,AGTGAATA,0.0861
12,ACGCCCAA,-0.00809
13,CGGCTGGA,-0.111
14,AACACACC,0.099
15,ATATTGCC,0.111
16,ACAAAGTA,0.0268
17,AGTACATC,0.0156
18,CGACAGTA,0.0632
19,AGGCGCCC,-0.234
20,CGTCATAC,0.189
21,GAGAGAGA,0.0106
22,GCCTTTAA,-0.107
23,AATTCGGC,-0.0241
24,AGACAACT,0.189
25,CTGCGCGA,-0.079

row,Sequence,PBM E-score
1,ATATGTGG,0.142
2,GCTTCGAA,-0.00828
3,CTTCAGGC,-0.19
4,CAAGGGTG,-0.166
5,GAGGTGTA,-0.0397
6,CTAGAGAG,-0.244
7,CTACCGTC,-0.105
8,GGAACGAA,0.0662
9,ACCCCTTA,-0.162
10,GTGTAAGA,0.0309
11,AACGGATC,0.24
12,CGATTAGC,0.0872
13,ATCATTCA,0.187
14,CGCTAGAG,-0.139
15,TAAGGTAA,0.205
16,GCTGCAGC,-0.00142
17,GCGGATTA,0.225
18,CGGGTTAC,0.0429
19,ACTTTGCT,-0.00495
20,CCCGCGTC,0.0801
21,TCCTTTAA,-0.0313
22,GAGTAGCC,-0.15
23,CGAGTGAC,-0.0844
24,GCGTTACC,-0.111
25,CCGCGAGC,-0.139

row,Sequence,PBM E-score
1,GGGAGACA,-0.0654
2,AATGTGCC,-0.124
3,GTGTCGCA,-0.0707
4,GCGACACA,0.0581
5,CACCAGTC,-0.21
6,ATCGTAGG,-0.107
7,ATATAATG,0.21
8,ACTGTGGG,-0.0885
9,AGATTGCA,-0.0174
10,CCGGGCAA,-0.092
11,CGTAGATA,0.0684
12,AGTGAAGC,-0.0382
13,AAGGGGGC,-0.242
14,AGCTGAAC,-0.125
15,AAATCTGG,0.0167
16,GGTAAACA,0.079
17,AAGTAAGG,0.069
18,AAAGCATC,0.134
19,TACTCGAA,-0.0449
20,AGTTCCCC,-0.116
21,AATCGACC,0.147
22,ATGGGGAA,0.186
23,GTGATCAC,-0.106
24,AATGGGTA,0.16
25,GCCCCTCC,-0.0369

# Five entries drawn at random from those above:
row,Sequence,PBM E-score
14,AACACACC,0.099
6,ATCGTAGG,-0.107
25,CCGCGAGC,-0.139
21,TCCTTTAA,-0.0313
8,ACTGTGGG,-0.0885

# Further records.

row,Sequence,PBM E-score
1,CCCAGTAC,-0.116
2,CCTGCATA,-0.0919
3,AGGACTTA,-0.221
4,AACGGTAT,-0.0343
5,CGCACAGC,-0.147
6,CGCGGATC,-0.0837
7,ACCCCCGG,-0.301
8,GGAACACA,0.0362
9,AAGAGCGC,-0.00065
10,CGTTAAAA,-0.179
11,ACTATCCC,-0.0182
12,CGGGTAAG,-0.0632
13,CTTGGAGC,-0.185
14,GCACCTCC,-0.275
15,GCCGTATA,0.0545
16,CATGGAGC,-0.0156
17,CACTGCCC,-0.0939
18,AGGCGGCG,-0.0941
19,CATCCGAA,0.0846
20,CGGCCGTC,-0.125
21,AAAGCGGA,-0.0958
22,GGGTAGCA,-0.181
23,TCACCAGA,-0.144
24,GGTCGTTA,0.0687
25,CCCCGCTA,-0.0285

row,Sequence,PBM E-score
1,AGAGACCG,-0.18
2,ATTGTCAC,0.0732
3,GCCCAATA,0.0485
4,CCTAACCA,0.0938
5,GGGACGAC,-0.205
6,AGCGACGA,-0.123
7,TACCATAA,0.191
8,TACAATAA,0.139
9,GTGCCACA,-0.115
10,ATGTTGCA,0.0815
11,AAAGGTCA,-0.0751
12,CTCATCCA,-0.0382
13,TTGGGAAA,0.11
14,ATCTTACA,0.0817
15,CCCGGTAG,-0.108
16,AGAAAAGC,0.0534
17,GGCGCACA,-0.071
18,GACGAGAA,0.0802
19,TAATATCA,0.26
20,CGTAAAGC,-0.147
21,AGGACACT,-0.196
22,ACCGAGCC,-0.165
23,TACTAGGA,-0.0768
24,CCAATCGG,-0.0547
25,AAATCTTA,0.0634

row,Sequence,PBM E-score
1,CTTTCGTC,0.0543
2,CTGACATA,0.153
3,ACTATTCG,0.224
4,CGGCACTA,0.0141
5,CCAAGAAG,-0.153
6,CCGCATAA,0.283
7,GCCGACGA,-0.0276
8,ACGTAGAC,-0.247
9,CGATTCGC,0.0834
10,GATTGCAA,0.079
11,ACAGTAGC,-0.0133
12,AGATGCGC,0.0757
13,CTGAGAGC,-0.242
14,AGAGGTCC,-0.0165
15,CGAACTAC,0.129
16,ACTATAAC,0.0218
17,AGTGTGGC,0.0189
18,ATGTGGCC,0.0176
19,CATTCCAG,-0.21
20,GGAACCCA,-0.0933
21,CCTTCGCG,0.0389
22,CATTATGG,-0.0638
23,CGCATGGA,-0.0776
24,ATCTTGTC,0.109
25,CATTGTTA,0.0595

# Reformatted tab-delimited: entries from further up.
row	Sequence	PBM E-score
6	AGCGACGA	-0.123
7	TACCATAA	0.191
8	TACAATAA	0.139
9	GTGCCACA	-0.115
10	ATGTTGCA	0.0815
11	AAAGGTCA	-0.0751

# More entries.

row,Sequence,PBM E-score
1,CTCTCTGA,-0.0567
2,CTAACCGA,-0.0873
3,AGGATTGA,0.128
4,CTGGGCGC,-0.0839
5,ACCCAATC,0.137
6,AGAACCAA,-0.0863
7,GACTGGCA,-0.134
8,AGCAATCG,0.186
9,CAATTGGG,0.0205
10,GAGTGATA,0.148
11,AACGCCAA,-0.0074
12,CCCGCTCA,-0.0399
13,ATGGCCGG,-0.124
14,AGAAGGAG,-0.187
15,GATATATA,0.266
16,CGCTATGC,-0.135
17,TGCTCTAA,-0.153
18,AGGCGCAG,-0.252
19,CGGCAACC,-0.252
20,AGGGAAAT,-0.00854
21,ACTACTTC,0.0739
22,CAGTCTAC,-0.197
